# The supplement of paper PMC10849652
# The chains behind the UniProt entries cited, without tags or fusion partners. Where a name states a change or a piece, a line headed by the entry shows the natural chain unless it says otherwise.
# UniProt P29144: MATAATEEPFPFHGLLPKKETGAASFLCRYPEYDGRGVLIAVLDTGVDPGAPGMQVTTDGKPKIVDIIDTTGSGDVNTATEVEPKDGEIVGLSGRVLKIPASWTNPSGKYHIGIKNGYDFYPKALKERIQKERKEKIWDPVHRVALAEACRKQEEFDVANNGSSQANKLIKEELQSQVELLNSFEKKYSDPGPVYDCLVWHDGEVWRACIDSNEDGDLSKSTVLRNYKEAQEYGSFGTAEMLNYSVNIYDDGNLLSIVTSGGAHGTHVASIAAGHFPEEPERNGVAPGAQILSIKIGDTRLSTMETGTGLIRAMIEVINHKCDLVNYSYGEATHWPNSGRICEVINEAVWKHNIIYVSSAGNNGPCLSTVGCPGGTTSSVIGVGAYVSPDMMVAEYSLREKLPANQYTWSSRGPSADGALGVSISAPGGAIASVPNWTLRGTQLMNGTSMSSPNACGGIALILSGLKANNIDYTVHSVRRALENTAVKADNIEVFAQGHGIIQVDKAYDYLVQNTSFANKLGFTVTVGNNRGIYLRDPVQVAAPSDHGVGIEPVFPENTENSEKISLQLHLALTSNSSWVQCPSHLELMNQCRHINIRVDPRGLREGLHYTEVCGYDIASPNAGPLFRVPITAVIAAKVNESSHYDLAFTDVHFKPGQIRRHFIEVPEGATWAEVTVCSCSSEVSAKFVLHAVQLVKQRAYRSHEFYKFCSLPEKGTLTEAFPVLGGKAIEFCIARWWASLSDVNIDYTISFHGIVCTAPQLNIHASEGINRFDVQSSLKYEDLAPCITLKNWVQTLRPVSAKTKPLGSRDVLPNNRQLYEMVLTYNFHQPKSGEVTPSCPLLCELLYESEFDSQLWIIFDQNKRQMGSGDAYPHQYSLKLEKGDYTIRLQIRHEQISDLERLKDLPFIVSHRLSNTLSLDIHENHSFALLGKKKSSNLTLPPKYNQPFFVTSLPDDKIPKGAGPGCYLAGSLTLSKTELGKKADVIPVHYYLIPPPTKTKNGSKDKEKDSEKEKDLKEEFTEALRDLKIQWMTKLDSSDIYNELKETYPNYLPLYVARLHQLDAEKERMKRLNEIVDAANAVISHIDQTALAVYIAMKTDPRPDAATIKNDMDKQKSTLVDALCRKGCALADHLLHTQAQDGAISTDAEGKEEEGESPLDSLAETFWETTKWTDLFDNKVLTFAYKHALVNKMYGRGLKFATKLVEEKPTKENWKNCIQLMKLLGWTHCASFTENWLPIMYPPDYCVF
# UniProt Q9NS69: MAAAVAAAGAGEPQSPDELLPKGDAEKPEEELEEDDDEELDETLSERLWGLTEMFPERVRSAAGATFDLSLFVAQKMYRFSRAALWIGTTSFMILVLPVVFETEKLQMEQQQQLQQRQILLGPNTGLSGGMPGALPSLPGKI
# UniProt O60784, whole entry, looked up: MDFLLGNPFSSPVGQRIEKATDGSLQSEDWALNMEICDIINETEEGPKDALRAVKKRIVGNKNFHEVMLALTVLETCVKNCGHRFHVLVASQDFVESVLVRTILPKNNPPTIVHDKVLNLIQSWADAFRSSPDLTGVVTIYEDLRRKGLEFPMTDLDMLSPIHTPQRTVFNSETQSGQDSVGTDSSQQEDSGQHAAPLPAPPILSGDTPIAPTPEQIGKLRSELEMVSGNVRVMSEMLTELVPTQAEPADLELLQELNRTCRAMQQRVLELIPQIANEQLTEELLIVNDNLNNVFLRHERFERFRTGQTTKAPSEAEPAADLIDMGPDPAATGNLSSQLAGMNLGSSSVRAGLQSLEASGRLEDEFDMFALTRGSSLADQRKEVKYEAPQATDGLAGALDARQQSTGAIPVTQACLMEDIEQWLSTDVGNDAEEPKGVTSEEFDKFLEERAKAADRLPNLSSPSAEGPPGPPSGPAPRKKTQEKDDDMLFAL
# UniProt Q9ULW0, whole entry, looked up: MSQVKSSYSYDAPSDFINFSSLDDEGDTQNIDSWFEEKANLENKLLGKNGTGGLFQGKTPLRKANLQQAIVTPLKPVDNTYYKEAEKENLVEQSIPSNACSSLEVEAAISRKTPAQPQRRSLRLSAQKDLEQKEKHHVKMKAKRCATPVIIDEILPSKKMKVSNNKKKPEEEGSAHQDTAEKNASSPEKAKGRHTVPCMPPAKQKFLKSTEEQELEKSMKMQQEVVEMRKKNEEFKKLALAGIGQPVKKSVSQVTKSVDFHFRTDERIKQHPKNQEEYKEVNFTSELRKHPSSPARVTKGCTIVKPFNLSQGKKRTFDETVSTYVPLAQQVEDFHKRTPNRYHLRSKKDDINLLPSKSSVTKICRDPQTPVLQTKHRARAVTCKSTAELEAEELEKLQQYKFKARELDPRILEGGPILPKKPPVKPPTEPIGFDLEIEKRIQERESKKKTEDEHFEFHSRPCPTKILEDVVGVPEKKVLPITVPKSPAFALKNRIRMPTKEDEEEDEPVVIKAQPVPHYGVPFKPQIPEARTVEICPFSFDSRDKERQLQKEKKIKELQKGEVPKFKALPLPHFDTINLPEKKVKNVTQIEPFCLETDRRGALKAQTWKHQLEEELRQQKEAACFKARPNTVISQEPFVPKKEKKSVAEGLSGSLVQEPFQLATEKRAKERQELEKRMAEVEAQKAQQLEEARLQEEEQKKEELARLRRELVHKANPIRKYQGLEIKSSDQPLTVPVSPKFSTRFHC
# UniProt P51580: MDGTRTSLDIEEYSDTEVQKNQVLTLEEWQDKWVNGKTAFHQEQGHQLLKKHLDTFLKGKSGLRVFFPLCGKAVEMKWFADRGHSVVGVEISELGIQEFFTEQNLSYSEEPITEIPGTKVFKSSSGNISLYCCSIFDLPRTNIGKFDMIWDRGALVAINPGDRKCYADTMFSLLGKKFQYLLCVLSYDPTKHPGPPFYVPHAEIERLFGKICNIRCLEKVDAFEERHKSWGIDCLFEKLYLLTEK
# UniProt Q53FA7: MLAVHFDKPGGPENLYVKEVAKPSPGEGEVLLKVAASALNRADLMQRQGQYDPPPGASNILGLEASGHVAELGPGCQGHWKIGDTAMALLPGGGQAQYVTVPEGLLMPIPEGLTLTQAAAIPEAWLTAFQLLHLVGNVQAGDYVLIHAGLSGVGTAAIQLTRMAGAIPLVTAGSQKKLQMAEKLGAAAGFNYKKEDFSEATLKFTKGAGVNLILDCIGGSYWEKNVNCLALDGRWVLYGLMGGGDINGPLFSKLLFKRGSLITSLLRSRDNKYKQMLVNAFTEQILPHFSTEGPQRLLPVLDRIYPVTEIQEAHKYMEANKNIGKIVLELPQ
# UniProt Q02880: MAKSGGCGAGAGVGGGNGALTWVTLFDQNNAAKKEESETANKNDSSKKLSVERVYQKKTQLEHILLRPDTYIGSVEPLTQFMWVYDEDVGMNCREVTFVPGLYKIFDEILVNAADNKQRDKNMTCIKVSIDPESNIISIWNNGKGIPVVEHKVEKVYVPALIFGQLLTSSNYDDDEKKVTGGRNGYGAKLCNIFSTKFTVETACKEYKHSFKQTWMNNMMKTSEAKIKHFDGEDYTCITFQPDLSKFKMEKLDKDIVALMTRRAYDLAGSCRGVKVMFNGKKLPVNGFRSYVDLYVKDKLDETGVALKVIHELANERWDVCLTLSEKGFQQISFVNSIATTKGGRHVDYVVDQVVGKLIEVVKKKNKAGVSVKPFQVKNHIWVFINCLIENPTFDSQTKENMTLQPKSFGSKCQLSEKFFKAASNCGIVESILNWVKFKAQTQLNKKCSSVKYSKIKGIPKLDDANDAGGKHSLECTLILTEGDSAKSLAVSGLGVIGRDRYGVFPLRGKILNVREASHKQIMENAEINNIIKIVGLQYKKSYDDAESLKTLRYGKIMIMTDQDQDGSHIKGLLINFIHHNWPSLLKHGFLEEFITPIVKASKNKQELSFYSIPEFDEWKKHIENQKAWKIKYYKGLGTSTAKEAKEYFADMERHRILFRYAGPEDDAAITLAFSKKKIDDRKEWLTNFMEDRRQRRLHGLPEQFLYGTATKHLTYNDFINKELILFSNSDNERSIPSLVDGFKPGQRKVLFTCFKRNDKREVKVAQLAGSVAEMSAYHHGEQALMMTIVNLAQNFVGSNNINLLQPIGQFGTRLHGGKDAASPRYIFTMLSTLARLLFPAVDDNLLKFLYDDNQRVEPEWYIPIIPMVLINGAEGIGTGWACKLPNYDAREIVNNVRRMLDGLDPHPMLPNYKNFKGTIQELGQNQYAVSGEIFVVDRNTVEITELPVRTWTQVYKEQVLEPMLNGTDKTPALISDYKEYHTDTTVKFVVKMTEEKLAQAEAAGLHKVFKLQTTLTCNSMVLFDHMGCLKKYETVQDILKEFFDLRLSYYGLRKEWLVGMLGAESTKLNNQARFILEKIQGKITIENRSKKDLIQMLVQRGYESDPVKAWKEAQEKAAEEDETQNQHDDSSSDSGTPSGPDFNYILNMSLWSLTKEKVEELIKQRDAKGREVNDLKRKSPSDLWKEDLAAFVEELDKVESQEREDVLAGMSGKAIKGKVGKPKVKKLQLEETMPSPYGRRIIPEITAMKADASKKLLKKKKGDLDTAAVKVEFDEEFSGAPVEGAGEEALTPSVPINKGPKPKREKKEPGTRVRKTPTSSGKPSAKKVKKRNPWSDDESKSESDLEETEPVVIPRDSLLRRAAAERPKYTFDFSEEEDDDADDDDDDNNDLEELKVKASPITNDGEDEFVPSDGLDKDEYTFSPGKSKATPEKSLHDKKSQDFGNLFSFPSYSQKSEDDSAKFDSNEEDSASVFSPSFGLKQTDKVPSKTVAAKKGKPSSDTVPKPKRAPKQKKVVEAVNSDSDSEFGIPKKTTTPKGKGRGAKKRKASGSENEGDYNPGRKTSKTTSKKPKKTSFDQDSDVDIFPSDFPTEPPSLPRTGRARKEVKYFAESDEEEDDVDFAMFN
# UniProt Q96HA7: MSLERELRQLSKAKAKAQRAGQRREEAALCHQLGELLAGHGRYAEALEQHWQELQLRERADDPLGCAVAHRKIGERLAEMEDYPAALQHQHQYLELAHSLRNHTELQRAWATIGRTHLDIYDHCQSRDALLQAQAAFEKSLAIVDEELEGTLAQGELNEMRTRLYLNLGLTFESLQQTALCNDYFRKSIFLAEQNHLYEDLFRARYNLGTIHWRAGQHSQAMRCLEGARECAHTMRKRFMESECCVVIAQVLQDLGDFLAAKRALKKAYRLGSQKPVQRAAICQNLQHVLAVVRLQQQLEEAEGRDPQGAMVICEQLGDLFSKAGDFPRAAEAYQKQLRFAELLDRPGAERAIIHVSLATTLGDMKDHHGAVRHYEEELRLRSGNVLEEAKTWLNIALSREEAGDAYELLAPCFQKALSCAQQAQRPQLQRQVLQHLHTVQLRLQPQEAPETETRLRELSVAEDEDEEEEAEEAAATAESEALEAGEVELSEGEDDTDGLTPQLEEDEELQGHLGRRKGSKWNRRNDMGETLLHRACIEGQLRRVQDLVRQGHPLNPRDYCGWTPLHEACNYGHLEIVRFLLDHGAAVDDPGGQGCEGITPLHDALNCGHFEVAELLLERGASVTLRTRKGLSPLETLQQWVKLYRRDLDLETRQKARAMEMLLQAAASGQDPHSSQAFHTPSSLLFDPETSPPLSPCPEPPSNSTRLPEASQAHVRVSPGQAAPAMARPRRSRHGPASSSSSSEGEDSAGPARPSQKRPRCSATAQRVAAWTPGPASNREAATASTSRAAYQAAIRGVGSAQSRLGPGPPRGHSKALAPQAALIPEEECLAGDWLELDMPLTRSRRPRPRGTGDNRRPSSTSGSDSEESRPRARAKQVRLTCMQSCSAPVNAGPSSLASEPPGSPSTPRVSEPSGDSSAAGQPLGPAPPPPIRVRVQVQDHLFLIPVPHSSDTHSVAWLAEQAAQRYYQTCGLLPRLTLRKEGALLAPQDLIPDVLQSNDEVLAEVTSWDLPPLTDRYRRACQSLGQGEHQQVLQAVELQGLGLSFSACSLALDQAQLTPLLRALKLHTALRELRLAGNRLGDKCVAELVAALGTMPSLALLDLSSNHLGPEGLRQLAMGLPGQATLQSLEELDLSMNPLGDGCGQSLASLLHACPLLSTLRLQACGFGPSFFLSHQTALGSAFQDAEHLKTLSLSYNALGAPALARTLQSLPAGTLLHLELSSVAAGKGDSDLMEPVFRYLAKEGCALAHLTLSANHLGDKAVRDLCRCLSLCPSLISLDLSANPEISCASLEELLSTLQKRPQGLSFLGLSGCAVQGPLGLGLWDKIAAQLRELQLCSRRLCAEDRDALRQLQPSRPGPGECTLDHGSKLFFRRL
# UniProt P28289: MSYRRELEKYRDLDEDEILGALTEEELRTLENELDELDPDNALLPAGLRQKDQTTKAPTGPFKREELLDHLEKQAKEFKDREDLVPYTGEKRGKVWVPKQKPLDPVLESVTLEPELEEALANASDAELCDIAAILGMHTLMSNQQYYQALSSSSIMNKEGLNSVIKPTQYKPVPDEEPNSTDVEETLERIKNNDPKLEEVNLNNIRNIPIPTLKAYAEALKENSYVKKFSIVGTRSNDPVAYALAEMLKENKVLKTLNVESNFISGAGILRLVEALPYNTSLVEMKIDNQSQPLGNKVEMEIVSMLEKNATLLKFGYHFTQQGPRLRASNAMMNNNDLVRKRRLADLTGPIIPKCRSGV
# The other results are listed elsewhere or left out.
# Compound: COC(=O)[C@H](CCSC)NC(=O)C1=C(C=C(C=C1)NC[C@H](CS)N)C2=CC=CC=C2
# Assay: log2 fold change, soluble protein after heating vs DMSO (PISA); higher = thermal stabilisation; K562 lysate, 10 uM; active = over 0.2 and 3.5 SD of the protein, either way, in both replicates (recomputed)
# Outline: (§1)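 To prepare the extract, K562 pellets were dounce-homogenised in PBS pH 7.4 with 1 mM MgCl2, giving crude material at 1 mg/mL protein. This was treated with 10 μM compound for 30 min, then heated in aliquots for 3 min over 48°C-58°C before pooling and addition of NP-40 to 0.5% at 4°C. Centrifugation at 21,000xg for 90 min left soluble protein in the supernatant, which TMTpro 16plex LC-MS/MS quantified with equalised channel sums. Results are log-two fold changes in thermal stability compared with solvent controls, from duplicates.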
row,Target,log2 fold change
1,TMX3 (UniProt Q96JJ7),inactive: -0.046
2,TOR3A (UniProt Q9H497),inactive: -0.006
3,TMEM63B (UniProt Q5T3F8),inactive: -0.01
4,TPP2 (UniProt P29144),inactive: 0.068
5,TPP1 (UniProt O14773),inactive: 0.046
6,TNIK isoform 4 (UniProt Q9UKE5),inactive: -0.097
7,TPD52L2 isoform 7 (UniProt O43399),inactive: 0.008
8,TMEM38B (UniProt Q9NVV0),inactive: -0.073
9,TRA2A (UniProt Q13595),inactive: 0.068
10,TOMM22 (UniProt Q9NS69),inactive: -0.041
11,TPM1 isoform 4 (UniProt P09493),inactive: -0.088
12,TOM1 isoform 2 (UniProt O60784),inactive: 0.003
13,TMOD3 (UniProt Q9NYL9),inactive: -0.122
14,TMEM97 (UniProt Q5BJF2),inactive: -0.042
15,TMEM68 (UniProt Q96MH6),inactive: -0.001
16,TPM3 isoform 2 (UniProt P06753),inactive: -0.071
17,TPX2 (UniProt Q9ULW0),active: -0.215

row,Target,log2 fold change
1,TOP1 (UniProt P11387),inactive: 0.077
2,TNIP1 (UniProt Q15025),inactive: -0.038
3,TOMM70 (UniProt O94826),inactive: -0.282
4,TMEM219 (UniProt Q86XT9),inactive: -0.093
5,TPMT (UniProt P51580),inactive: 0
6,TP53I3 (UniProt Q53FA7),inactive: -0.031
7,TPST2 (UniProt O60704),inactive: -0.049
8,TOP2B isoform 2 (UniProt Q02880),inactive: 0.034
9,TPM3 (UniProt P06753),inactive: -0.02
10,TPM4 isoform 2 (UniProt P67936),inactive: -0.077
11,TPI1 (UniProt P60174),inactive: -0.049
12,TMEM87B (UniProt Q96K49),inactive: 0.017
13,TNFRSF1B (UniProt P20333),inactive: -0.018
14,TMEM245 (UniProt Q9H330),inactive: -0.003
15,TONSL (UniProt Q96HA7),inactive: 0.138
16,TMOD1 (UniProt P28289),inactive: -0.002

# Compound: COc1cc(Nc2ncc3c(n2)-c2ccc(Cl)cc2C(c2c(F)cccc2OC)=NC3)ccc1C(=O)O [alisertib]
# Assay: as above
# Outline: as §1
row,Target,log2 fold change
1,TMX3 (UniProt Q96JJ7),inactive: -0.043
2,TOR3A (UniProt Q9H497),inactive: 0.032
3,TMEM63B (UniProt Q5T3F8),inactive: -0.04
4,TPP2 (UniProt P29144),inactive: -0.02
5,TPP1 (UniProt O14773),inactive: 0.029
6,TNIK isoform 4 (UniProt Q9UKE5),inactive: -0.026
7,TPD52L2 isoform 7 (UniProt O43399),inactive: -0.01
8,TMEM38B (UniProt Q9NVV0),inactive: -0.011
9,TRA2A (UniProt Q13595),inactive: -0.188
10,TOMM22 (UniProt Q9NS69),inactive: -0.016
11,TPM1 isoform 4 (UniProt P09493),inactive: 0.035
12,TOM1 isoform 2 (UniProt O60784),inactive: -0.089
13,TMOD3 (UniProt Q9NYL9),inactive: 0.023
14,TMEM97 (UniProt Q5BJF2),inactive: -0.026
15,TMEM68 (UniProt Q96MH6),inactive: -0.049
16,TPM3 isoform 2 (UniProt P06753),inactive: 0
17,TPX2 (UniProt Q9ULW0),inactive: 0.043

row,Target,log2 fold change
1,TOP1 (UniProt P11387),inactive: -0.012
2,TNIP1 (UniProt Q15025),inactive: 0
3,TOMM70 (UniProt O94826),inactive: -0.025
4,TMEM219 (UniProt Q86XT9),inactive: -0.057
5,TPMT (UniProt P51580),inactive: -0.031
6,TP53I3 (UniProt Q53FA7),inactive: -0.054
7,TPST2 (UniProt O60704),inactive: 0.478
8,TOP2B isoform 2 (UniProt Q02880),inactive: -0.006
9,TPM3 (UniProt P06753),inactive: -0.007
10,TPM4 isoform 2 (UniProt P67936),inactive: -0.098
11,TPI1 (UniProt P60174),inactive: 0.029
12,TMEM87B (UniProt Q96K49),inactive: 0.004
13,TNFRSF1B (UniProt P20333),inactive: -0.145
14,TMEM245 (UniProt Q9H330),inactive: -0.044
15,TONSL (UniProt Q96HA7),inactive: -0.024
16,TMOD1 (UniProt P28289),inactive: 0.014

# Compound: COc1cc2nc(-c3cc(F)ccc3O)nc(N[C@@H]3CNC[C@H]3C(C)(C)O)c2cc1OC
# Assay: as above
# Outline: as §1
row,Target,log2 fold change
1,TMX3 (UniProt Q96JJ7),inactive: 0.053
2,TOR3A (UniProt Q9H497),inactive: -0.367
3,TMEM63B (UniProt Q5T3F8),inactive: -0.003
4,TPP2 (UniProt P29144),inactive: 0
5,TPP1 (UniProt O14773),inactive: 0.019
6,TNIK isoform 4 (UniProt Q9UKE5),inactive: 0.247
7,TPD52L2 isoform 7 (UniProt O43399),inactive: 0.037
8,TMEM38B (UniProt Q9NVV0),inactive: 0.017
9,TRA2A (UniProt Q13595),inactive: 0.017
10,TOMM22 (UniProt Q9NS69),inactive: -0.025
11,TPM1 isoform 4 (UniProt P09493),inactive: -0.012
12,TOM1 isoform 2 (UniProt O60784),inactive: 0.016
13,TMOD3 (UniProt Q9NYL9),inactive: -0.003
14,TMEM97 (UniProt Q5BJF2),inactive: 0.014
15,TMEM68 (UniProt Q96MH6),inactive: -0.051
16,TPM3 isoform 2 (UniProt P06753),inactive: -0.024
17,TPX2 (UniProt Q9ULW0),inactive: -0.027

row,Target,log2 fold change
1,TOP1 (UniProt P11387),inactive: -0.006
2,TNIP1 (UniProt Q15025),inactive: -0.239
3,TOMM70 (UniProt O94826),inactive: 0.02
4,TMEM219 (UniProt Q86XT9),inactive: -0.053
5,TPMT (UniProt P51580),inactive: -0.024
6,TP53I3 (UniProt Q53FA7),inactive: 0.017
7,TPST2 (UniProt O60704),inactive: 0.025
8,TOP2B isoform 2 (UniProt Q02880),inactive: -0.011
9,TPM3 (UniProt P06753),inactive: 0
10,TPM4 isoform 2 (UniProt P67936),inactive: -0.01
11,TPI1 (UniProt P60174),inactive: 0.006
12,TMEM87B (UniProt Q96K49),inactive: 0.031
13,TNFRSF1B (UniProt P20333),inactive: -0.001
14,TMEM245 (UniProt Q9H330),inactive: -0.059
15,TONSL (UniProt Q96HA7),inactive: -0.006
16,TMOD1 (UniProt P28289),inactive: 0.016
